Data as given in PubChem BioAssay AID652248 (Drosophila RNAi Screening Center, 2013).

- Test: 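Kinase and phosphatase regulators of cell lengthening and shape variety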 (primary screen)
- Cells: cultured Drosophila hemocytes
- Knock-down reagent: long dsRNA against Drosophila genes
- Read-out: 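Automated microscopy of stained actin, tubulin and nuclei; single-cell shape measures assigned to five reference shape types, giving a score per dsRNA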
- Reading the numbers: elongated score: higher = more elongated bipolar cells; normal round score: higher = more normal rounded cells; teardrop score: higher = more small teardrop-shaped cells
- Active means: 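a gene counts as active when its knock-down clearly increases the elongated score; a low similarity score was then used to rank the actives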
The deposit covers 863 reagents; below is a part drawn at random. 32 of them (3.7%) count as active. 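Calls also used reproducibility and a similarity ranking whose scores are not deposited; many active genes show only modest elongated scores.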 Not stated in the record: the amount of reagent, the time to read-out.

gene knocked down | DRSC id | elongated score, rep 1 | elongated score, rep 2 | normal round score, rep 1 | teardrop score, rep 1 | Outcome
CG7378 | DRSC20041 | -0.53 | – | 0.23 | -0.54 | inactive
PPP4R2r | DRSC18695 | 1.41 | -0.31 | -1.04 | 0.81 | inactive
PPP4R2r | DRSC21503 | 1 | – | -1.36 | 0.77 | inactive
PPP4R2r | DRSC27825 | 1.18 | – | -2.16 | 2.46 | inactive
CG7069 | DRSC16188 | -0.35 | – | 0.68 | -0.61 | inactive
CG32373 | DRSC08895 | -0.53 | – | 0.56 | -0.23 | inactive
sti | DRSC09739 | -0.53 | – | -8.59 | 8.38 | inactive
sti | DRSC09740 | -0.53 | – | -8.15 | 6.08 | inactive
CG10702 | DRSC02097 | 0.67 | – | -1.25 | 1.06 | inactive
sds22 | DRSC17052 | 0.36 | – | 0.45 | -0.46 | inactive
Papss | DRSC11246 | 0.01 | – | 0.34 | -0.14 | inactive
Papss | DRSC27101 | 0.09 | – | -2.55 | 1.87 | inactive
alph | DRSC15398 | 1.86 | – | -2.24 | 1.86 | inactive
alph | DRSC28570 | 0.11 | – | -1.22 | 1.81 | inactive
CG9452 | DRSC11075 | 8.29 | – | -8.18 | 6.34 | inactive
CG9452 | DRSC23344 | 1.86 | – | -0.52 | -0.59 | inactive
Hipk | DRSC23155 | -0.53 | – | 0.38 | -0.58 | inactive
dlg1 | DRSC18896 | -0.53 | – | -1.98 | 2.34 | inactive
dlg1 | DRSC19767 | 0.83 | – | -1.85 | 2.53 | inactive
dlg1 | DRSC20324 | -0.24 | – | 0.06 | 0.02 | inactive
dlg1 | DRSC29546 | 6.11 | – | -3.66 | 1.38 | inactive
ND-MWFE | DRSC06364 | -0.53 | – | 0.5 | -0.25 | inactive
Cmpk | DRSC16643 | 0.25 | – | -0.64 | 0.34 | inactive
Mos | DRSC07258 | -0.53 | – | 0.86 | -0.64 | inactive
Bub1 | DRSC23158 | -0.28 | – | 0.02 | -0.06 | inactive
Bub1 | DRSC27436 | 0.94 | – | -0.45 | -0.17 | inactive
Gk2 | DRSC08610 | 0.06 | – | -0.19 | 0.55 | inactive
Pka-R1 | DRSC11875 | -0.53 | – | 0.57 | -0.51 | inactive
trbl | DRSC11901 | -0.16 | – | -0.95 | 0.36 | inactive
p38b | DRSC03586 | -0.53 | – | -1.72 | 1.88 | inactive
CG1227 | DRSC12534 | -0.53 | – | 0.27 | -0.08 | inactive
CG1227 | DRSC25952 | -0.45 | – | -2.35 | -0.12 | inactive
Magi | DRSC04247 | 0.54 | – | -0.31 | 0.55 | inactive
Magi | DRSC04451 | -0.33 | – | -0.2 | 0.7 | inactive
Magi | DRSC26209 | -0.53 | – | 0.58 | -0.73 | inactive
Srpk79D | DRSC11668 | -0.24 | – | -1.43 | 0.82 | inactive
Srpk79D | DRSC11856 | -0.53 | – | -0.85 | 0.83 | inactive
Srpk79D | DRSC29962 | 3.97 | – | -2.54 | 0.5 | inactive
mri | DRSC08259 | -0.27 | – | 0.46 | -0.26 | inactive
mri | DRSC27787 | 1.15 | – | -3.37 | 4.02 | inactive
Gbs-70E | DRSC11055 | -0.41 | – | 0.12 | 0.34 | inactive
Cdk7 | DRSC18451 | -0.41 | – | -0.37 | 0.58 | inactive
Cdk7 | DRSC23327 | 0.17 | – | -0.99 | 1.09 | inactive
CG11437 | DRSC11659 | 1.68 | – | -0.21 | -0.07 | inactive
Pkc98E | DRSC16791 | 0.19 | – | -0.09 | -0.12 | inactive
Pkc98E | DRSC28311 | -0.27 | – | -1.51 | 2.42 | inactive

5 entries from above, ordered by “normal round score, rep 1”, highest first:
gene knocked down | DRSC id | elongated score, rep 1 | elongated score, rep 2 | normal round score, rep 1 | teardrop score, rep 1 | Outcome
CG7069 | DRSC16188 | -0.35 | – | 0.68 | -0.61 | inactive
CG32373 | DRSC08895 | -0.53 | – | 0.56 | -0.23 | inactive
CG10702 | DRSC02097 | 0.67 | – | -1.25 | 1.06 | inactive
sti | DRSC09740 | -0.53 | – | -8.15 | 6.08 | inactive
sti | DRSC09739 | -0.53 | – | -8.59 | 8.38 | inactive
